Measurements: patent publication US20240368285A1
Numbering of substitutions follows the chain as printed. Results are given in words; binding and its absence hold for the method and conditions named. Some results given as binding are weak or reduced against the parent protein; the word gives no strength. Blank lines part the entries; values can stand above or below the binder they belong to.

Experiments:
[1] = biological target: T1, MICA on human tumor cells (A-375, A549, HCT-15, MDA-MB-231) (human) (UniProt Q29983); assay: flow cytometry on HCT-15 cells, Alexa-647 goat anti-human secondary, mean fluorescence intensity
T1 sequence (looked up): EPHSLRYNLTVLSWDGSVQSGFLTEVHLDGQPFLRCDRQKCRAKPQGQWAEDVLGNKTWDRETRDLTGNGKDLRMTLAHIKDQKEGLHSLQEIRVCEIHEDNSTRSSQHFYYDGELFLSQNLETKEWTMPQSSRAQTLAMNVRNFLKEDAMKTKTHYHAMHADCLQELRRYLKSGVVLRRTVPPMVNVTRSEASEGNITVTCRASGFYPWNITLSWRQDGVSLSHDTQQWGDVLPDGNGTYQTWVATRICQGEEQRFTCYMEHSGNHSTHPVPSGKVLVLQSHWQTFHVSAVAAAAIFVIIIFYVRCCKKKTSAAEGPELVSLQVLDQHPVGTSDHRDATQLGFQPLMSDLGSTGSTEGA

[2] = biological target: T1, MICA on human tumor cells (A-375, A549, HCT-15, MDA-MB-231) (human); assay: flow cytometry on MDA-MB-231 cells, Alexa-647 goat anti-human secondary, % binding ratio
[3] = biological target: T1, MICA on human tumor cells (A-375, A549, HCT-15, MDA-MB-231) (human); assay: flow cytometry competition on HCT-15 cells; competitor Biotin-h5A1002
[4] = biological target: T1, MICA on human tumor cells (A-375, A549, HCT-15, MDA-MB-231) (human); assay: flow cytometry on A-549 cells, Alexa-647 goat anti-human secondary, mean fluorescence intensity
[5] = biological target: T1, MICA on human tumor cells (A-375, A549, HCT-15, MDA-MB-231) (human); assay: flow cytometry on A-375 cells, Alexa-647 goat anti-human secondary, mean fluorescence intensity
[6] = biological target: T1, MICA on human tumor cells (A-375, A549, HCT-15, MDA-MB-231) (human); assay: flow cytometry on HCT-15 cells, Alexa-647 goat anti-human secondary, % binding ratio
[7] = biological target: T1, MICA on human tumor cells (A-375, A549, HCT-15, MDA-MB-231) (human); assay: flow cytometry on A-375 cells, Alexa-647 goat anti-human secondary, % binding ratio
[8] = biological target: T1, MICA on human tumor cells (A-375, A549, HCT-15, MDA-MB-231) (human); assay: flow cytometry competition on HCT-15 cells; competitor: Biotin-h5A1002, detected with Alexa-647 streptavidin; % binding ratio of Biotin-h5A1002
[9] = biological target: T1, MICA on human tumor cells (A-375, A549, HCT-15, MDA-MB-231) (human); assay: flow cytometry on MDA-MB-231 cells, Alexa-647 goat anti-human secondary, mean fluorescence intensity
[10] = biological target: T1, MICA on human tumor cells (A-375, A549, HCT-15, MDA-MB-231) (human); assay: flow cytometry on A-549 cells, Alexa-647 goat anti-human secondary, % binding ratio
[11] = biological target: T1, MICA on human tumor cells (A-375, A549, HCT-15, MDA-MB-231) (human); assay: flow cytometry on A-375 and HCT-15 cells
[12] = biological target: T1, MICA on human tumor cells (A-375, A549, HCT-15, MDA-MB-231) (human); assay: flow cytometry on HCT-15 cells, Alexa-647 goat anti-human secondary, average fluorescence intensity
[13] = biological target: T2, MICA protein (SPR analyte) (human) (UniProt Q29983); assay: SPR (Biacore 8K), antibody captured on a protein A chip, MICA as analyte
T2 sequence: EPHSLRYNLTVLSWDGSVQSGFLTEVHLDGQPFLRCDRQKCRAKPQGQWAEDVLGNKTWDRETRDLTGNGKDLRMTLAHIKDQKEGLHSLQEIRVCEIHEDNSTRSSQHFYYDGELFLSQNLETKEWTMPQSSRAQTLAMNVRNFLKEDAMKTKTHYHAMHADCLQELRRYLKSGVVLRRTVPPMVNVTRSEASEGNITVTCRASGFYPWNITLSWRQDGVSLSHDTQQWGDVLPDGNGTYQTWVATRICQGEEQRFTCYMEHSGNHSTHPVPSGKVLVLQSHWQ

[14] = biological target: T1, MICA on human tumor cells (A-375, A549, HCT-15, MDA-MB-231) (human); assay: flow cytometry on A-375 cells, Alexa-647 goat anti-human secondary, average fluorescence intensity
[15] = biological target: T1, MICA on human tumor cells (A-375, A549, HCT-15, MDA-MB-231) (human); assay: flow cytometry on A-375, A-549, HCT-15 and MDA-MB-231 cells

binding [1]: binds | binding [2]: binds | binding [3]: binds | binding [4]: binds | binding [5]: binds | binding [6]: binds | binding [7]: binds | binding [8]: binds | binding [9]: binds | binding [10]: binds
B1: antibody 1D5V11 (Genentech) (antibody, human IgG1, kappa, V domains shown)
VH: EIQLVQSGAEVKKPGASVKVSCKASGYAFTSQNIYWVRQAPGQGLEWIGYIEPYNVVPMYNPKFKGRATLTVDKSTSTAYLELSSLRSEDTAVYYCARSGSSNFDYWGQGTLVTVSS
VL: DIQLTQSPSSLSASVGDRVTITCSASSSISSHYLHWYQQKPGKSPKLLIYRTSNLASGVPSRFSGSGSGTDYTLTISSLQPEDFATYYCQQGSSLPLTFGQGTKVEIKR

binding [11]: binds | binding [12]: binds | binding [13]: binds | binding [14]: binds
B2: maternal humanized antibody h5A1 (antibody, human IgG1, kappa, V domains shown)
VH: QVQLQESGPGLVKPSETLSLTCTVSGFSLTTYGVHWIRQPPGKGLEWIGMIWTDGTTDYNAAFISRVTISVDTSKNQFSLKLSSVTAADTAVYYCARKGHGYYYAMDYWGQGTLVTVSS
VL: EIVLTQSPGTLSLSPGERATLSCTASSSVSSSYLHWYQQKPGQAPRLLIYSTSNLASGIPDRFSGSGSGTDFTLTISRLEPEDFAVYYCHQYHRSPFTFGQGTKLEIKR

binding [1]: binds | binding [11]: binds | binding [2]: binds | binding [4]: binds | binding [5]: binds | binding [6]: binds | binding [15]: binds | binding [12]: binds | binding [7]: binds | binding [8]: binds | binding [13]: binds | binding [9]: binds | binding [14]: binds | binding [10]: binds
B3: affinity maturation antibody h5A1002 (antibody, V domains shown)
VH: B2 VH with V34G, T56W
VL: B2 VL with A56I

binding [1]: binds | binding [2]: binds | binding [3]: binds | binding [4]: binds | binding [5]: binds | binding [6]: binds | binding [15]: binds | binding [7]: binds | binding [8]: binds | binding [9]: binds | binding [10]: binds
B4: antibody CLN-619 (Cullinan) (antibody, human IgG1, kappa, V domains shown)
VH: QVQLVESGGGLVKPGGSLRLSCAASGFTFSNYAMSWIRQAPGKGLEWVSYISPGGDYIYYADSVKGRFTISRDNAKNSLYLQMNSLRAEDTAVYYCTTDRRHYGSYAMDYWGQGTLVTVSS
VL: DIVMTQSPLSLPVTPGEPASISCRSSKSLLHSNLNTYLYWFLQKPGQSPQILIYRMSNLASGVPDRFSGSGSGTAFTLKISRVEAEDVGVYYCMQHLEYPFTFGPGTKLEIKR
